# Results reported in PubChem BioAssay AID1671190 (National Center for Advancing Translational Sciences (NCATS), 2021).
# Sequences of proteins named here, by UniProt entry; tags and fusion partners are left off.
# UniProt P18054, whole entry, looked up: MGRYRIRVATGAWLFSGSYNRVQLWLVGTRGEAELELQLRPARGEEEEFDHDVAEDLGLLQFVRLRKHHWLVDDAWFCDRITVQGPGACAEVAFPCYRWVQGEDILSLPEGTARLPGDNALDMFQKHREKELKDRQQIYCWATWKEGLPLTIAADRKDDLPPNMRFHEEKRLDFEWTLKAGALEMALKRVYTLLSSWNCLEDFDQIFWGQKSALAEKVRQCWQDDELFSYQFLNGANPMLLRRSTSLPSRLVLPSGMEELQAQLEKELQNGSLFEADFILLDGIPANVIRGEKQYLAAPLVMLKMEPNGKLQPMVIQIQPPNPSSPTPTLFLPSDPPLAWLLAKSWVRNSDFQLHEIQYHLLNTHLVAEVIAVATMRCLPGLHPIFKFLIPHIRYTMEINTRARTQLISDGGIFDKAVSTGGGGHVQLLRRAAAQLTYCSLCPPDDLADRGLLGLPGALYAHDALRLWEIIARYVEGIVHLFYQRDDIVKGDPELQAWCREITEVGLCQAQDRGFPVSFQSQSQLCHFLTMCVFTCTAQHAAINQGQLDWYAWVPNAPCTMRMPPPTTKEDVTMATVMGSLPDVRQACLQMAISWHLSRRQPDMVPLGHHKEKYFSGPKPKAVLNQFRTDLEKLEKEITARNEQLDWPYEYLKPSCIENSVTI
# The campaign covered roughly 580,000 compounds. About 6,100 (1.1%) were called active. Inconclusive means that the source gave no clear call. Such entries were picked first, then a sample of the others. Calls come from the whole dose curve; as a rule, active = well fitted inhibition curve with a large enough effect; inconclusive = small, poorly fitted or top-dose-only effect, or another doubt; inactive = no such curve, though single readings can be large or run the other way. Potencies of inconclusive entries are doubtful fits and often do not repeat.
# Biological target: Polyunsaturated fatty acid lipoxygenase ALOX12 (Homo sapiens) (UniProt P18054)
# Assay: Primary qHTS assay for inhibitors of human arachidonate 12S-lipoxygenase (ALOX12): Round 2
# Settings: purified 12hLO, xylenol orange hydroperoxide absorbance; activity change, negative = inhibition: at 108 µM (top of the series) unless noted
# Method in brief: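 Purified human 12hLO (150 nM final) in 25 mM Hepes, 0.01% Triton X-100, pH 7.0 was preincubated 15 min at room temperature with compound. Then 40 uM arachidonic acid was added, 30 min. Hydroperoxide was read by Fe-XO absorbance ratio 573/405 nm.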
# % is set by controls: 0 for no effect and ±100 for the full control effect; potency is the fitted concentration of half-maximal effect.
Compound,Potency,"activity change, negative = inhibition"
COc1cccc(/C=C/C(=O)OCC(=O)Nc2cccc(S(=O)(=O)N(C)C)c2)c1,inactive,
Cc1ccc2nc(C)c(C(=O)NCc3ccc(N4CCCCCC4)nc3)cc2c1,inactive,
O=C(O)CSc1nnc(NC(=O)CN2CCOCC2)s1,"inconclusive: 3.16 µM [inhibitor, full curve, poor fit]",
CCc1nc(-c2c3n(c(=O)n(CC(=O)Nc4cc(C)ccc4C)c2=O)CCCCC3)no1,inactive,
COc1ccccc1CNc1ncncc1-c1cccc(NS(C)(=O)=O)c1,"inconclusive: 44.7 µM [inhibitor, partial curve, poor fit]",
Cc1nnc(-c2cc(-c3ccnn3C)ccn2)n1-c1ccccc1,"inconclusive: 35.5 µM [inhibitor, partial curve]",
Cc1cc(NC(=O)NCC2CCN(CCc3ccc(F)cc3)CC2)ccc1Br,"inconclusive: 44.7 µM [inhibitor, partial curve, poor fit]",
CC(=O)c1ccc(NC(=O)c2cccc(NC(=O)N3CCSc4ncccc43)c2)cc1,"inconclusive: 56.2 µM [inhibitor, partial curve, poor fit]",
CCOCCCNC(=O)c1c(NC(=O)Cc2coc3c(C)c(C)ccc23)sc2c1CCC2,"inconclusive: 39.8 µM [inhibitor, partial curve, poor fit]",
CCc1ccc(NC(=O)Cn2ccn3nc(-c4ccccc4)c(CO)c3c2=O)cc1,"inconclusive: 25.1 µM [inhibitor, full curve]",
CCCCn1c(N)c(N(CC(C)C)C(=O)CSCc2ccc(Cl)c(Cl)c2)c(=O)[nH]c1=O,"inconclusive: 79.4 µM [inhibitor, partial curve, poor fit]",
COc1ccc(NC(=O)CNS(=O)(=O)c2ccc(Cl)cc2)cc1OC,inactive,
CCCN(Cc1cc2cc(C)ccc2[nH]c1=O)C(=O)c1cccc(Cl)c1,"inconclusive: 89.1 µM [inhibitor, partial curve, poor fit]",
CCN(CC(=O)NC1(C)CCS(=O)(=O)C1)Cc1cccc(F)c1 (stereo not given),inactive,
Cc1cc(C(=O)NCc2c[nH]c3ncccc23)ccc1Cl,inactive,
O=C(CN1CCN(c2ccccn2)CC1)NCc1cccs1,"inconclusive: 0.631 µM [inhibitor, full curve, poor fit]",
CN(C(=O)CSc1ncnc2ccccc12)C1CCS(=O)(=O)C1 (stereo not given),,inconclusive: -33.1% [inhibitor]
Cc1cc(NC(=O)C(Cl)c2ccccc2)no1 (stereo not given),"inconclusive: 3.98 µM [inhibitor, full curve, poor fit]",
COc1cc(OC)c(NC(=O)COc2ccccc2-c2nnc(-c3ccccc3)o2)cc1Cl,inactive,
COc1ccccc1Nc1nnc(SCC(=O)N2CCCC2=O)s1,inactive,
CCCc1noc(-c2ccn3c(CNC(=O)c4ccc(CC)cc4)nnc3c2)n1,active: 39.8 µM,
COCc1nnc2n1CCC(NC(=O)c1ccc3cc[nH]c3c1)CC2 (stereo not given),inactive,
N#Cc1ccccc1CNc1ccc(F)cc1Cl,"inconclusive: 141 µM [inhibitor, single point]",
O=C(O)CNS(=O)(=O)c1cccc(C(=O)/C=C/c2ccccc2Cl)c1,"inconclusive: 25.1 µM [inhibitor, partial curve, poor fit]",

Compound,Potency,"activity change, negative = inhibition"
CCN(CC)c1ccc(NC(=O)COC(=O)CCC(=O)c2cccs2)cc1,"inconclusive: 112 µM [inhibitor, single point]",
Cc1nc(N2CCCCC2)ncc1C(=O)NC1CCOC2(CCOCC2)C1 (stereo not given),inactive,
C[C@H](NC(=O)c1ccc2nc(-n3cccc3)sc2c1)C(=O)NCc1ccco1,inactive,
N#Cc1ccccc1S(=O)(=O)N1CCN(C(=O)c2cc3c(s2)CCC3)CC1,inactive,
COc1cccc(C(=O)NCc2ccc3c(c2)cc(C)n3C)c1,inactive,
Oc1ccc(-c2nc(-c3ccc4c(c3)OCCCO4)cs2)cc1,"inconclusive: 28.2 µM [inhibitor, partial curve, poor fit]",
COc1ccc(NC(=O)Nc2ccc(-c3nnc(-c4ccccc4)o3)cc2)cc1F,"inconclusive: 44.7 µM [inhibitor, partial curve, poor fit]",
O=C(NC1CCCC1)c1cc(-c2ccccc2Cl)nc2ccccc12,"inconclusive: 158 µM [inhibitor, partial curve, poor fit]",
CCOC(=O)c1ccc(NC(=O)c2sc3nc(N4CCOCC4)c4c(c3c2N)CCCC4)cc1,inactive,
COCCNC(=O)C1(C)CCCN(Cc2cn(C)c3ccccc23)C1 (stereo not given),"inconclusive: 39.8 µM [inhibitor, partial curve, poor fit]",
COc1ccc(/C=C/C(O)=C2/C(=O)N(C)C3(C)CC2c2ccccc2O3)cc1 (stereo not given),inactive,
Cc1cccc(C(=O)NC(=S)Nc2ccccc2C(=O)O)c1,active: 39.8 µM,
O=C1C(=O)N(CCCN2CCOCC2)C(c2ccc([N+](=O)[O-])cc2)/C1=C(\O)c1ccc2c(c1)OCCO2 (stereo not given),inactive,
NC(=O)CSc1ncc2c(n1)-c1ccccc1N(Cc1ccccc1)S2(=O)=O,"inconclusive: 56.2 µM [inhibitor, partial curve, poor fit]",
CNC(=O)c1ccc(-c2nc(CN3CCN(C(=O)Nc4ccc(C)c(F)c4)CC3)c(C)o2)cc1,inactive,
COc1ccc(OCC(O)CN2CCCCC2)cc1 (stereo not given),inactive,
CCCc1[nH]n(-c2nc3ccccc3s2)c(=O)c1C=NCCN1CCOCC1,inactive,
O=C(NCCN1CCC(n2c(=O)[nH]c3ccccc32)CC1)c1ccc(C(F)(F)F)cc1C(F)(F)F,inactive,
Cc1cccc(CN2CCc3c(OCC(=O)N4CCCc5ccccc54)cccc3C2=O)c1,inactive,
COc1ccc(Nc2nc(-c3c(C)noc3C)cc3cc(CO)oc23)cc1OC,"inconclusive: 1.58 µM [inhibitor, full curve, poor fit]",
COc1ccc(-c2csc(C(O)c3ccc(F)c(F)c3)n2)cc1 (stereo not given),"inconclusive: 44.7 µM [inhibitor, partial curve, poor fit]",
Cc1c(Cl)cccc1NC(=O)NCC1CCN(CCc2ccccc2)C1 (stereo not given),"inconclusive: 11.2 µM [inhibitor, full curve]",
CCNC(=S)N/N=C/c1cn(Cc2ccc(F)cc2)c2ccccc12,active: 39.8 µM,
Cc1ccc(S(=O)(=O)Nc2cc(C)c(O)c(Sc3n[nH]c(C)n3)c2)cc1,"inconclusive: 44.7 µM [inhibitor, partial curve, poor fit]",

# 3 compounds picked at random from those above:
Compound,Potency,"activity change, negative = inhibition"
N#Cc1ccccc1S(=O)(=O)N1CCN(C(=O)c2cc3c(s2)CCC3)CC1,inactive,
C[C@H](NC(=O)c1ccc2nc(-n3cccc3)sc2c1)C(=O)NCc1ccco1,inactive,
O=C(NCCN1CCC(n2c(=O)[nH]c3ccccc32)CC1)c1ccc(C(F)(F)F)cc1C(F)(F)F,inactive,

# Remaining list, next part

Compound,Potency,"activity change, negative = inhibition"
Cc1ccc(Cl)cc1NC(=S)NCCSc1ccc(Cl)cc1,active: 35.5 µM,
CCNc1nc(N)c(C(=C(C#N)C#N)c2ccccc2)s1,"inconclusive: 17.8 µM [inhibitor, partial curve, poor fit]",
COc1ccc2[nH]c(C[C@@H]3C[C@@H](C(C)C)[C@H](CNCc4ccccc4O)C=C3C)nc2n1,"inconclusive: 11.2 µM [inhibitor, full curve]",
CCOc1cc(-c2nc(-c3ccccc3)c(-c3cc([N+](=O)[O-])ccc3C)[nH]2)ccc1O,"inconclusive: 50.1 µM [inhibitor, partial curve, poor fit]",
CC1=NN(c2ccc([N+](=O)[O-])cc2)C(c2ccccc2)C1 (stereo not given),"inconclusive: 50.1 µM [inhibitor, partial curve, poor fit]",
Cc1oc2c(c(C)cc3oc(=O)c(CC(=O)NCCCO)c(C)c32)c1C,"inconclusive: 200 µM [inhibitor, partial curve, poor fit]",
CN(C)c1ccc(-c2ccnc3c2CC(C)(C(=O)NCc2ccccc2)O3)cc1 (stereo not given),inactive,
CC1CN(c2oc(COc3ccc(Cl)cc3Cl)nc2C#N)CC(C)O1 (stereo not given),inactive,
CC#CCCC(=O)Nc1ccc(C)cc1,inactive,
Cc1nc(-c2ccc(Cl)cc2)sc1C1(C)CC(c2ccc(Cl)cc2)=NO1 (stereo not given),"inconclusive: 44.7 µM [inhibitor, partial curve, poor fit]",
Cc1ccc(-n2ccc(=O)c(C(=O)Nc3ccc(S(=O)(=O)Nc4onc(C)c4C)cc3)n2)cc1,"inconclusive: 28.2 µM [inhibitor, partial curve]",
CC(C)Cn1c(Oc2ccc(Cl)cc2)nc2c1c(=O)n(C)c(=O)n2C,inactive,
Cc1nc(C#N)c(N/N=C/c2cccc(Cl)c2)o1,active: 39.8 µM,
Cc1ccccc1-n1c(SC(C)C(=O)c2ccc(Br)cc2)nnc1N1CCOCC1 (stereo not given),"inconclusive: 70.8 µM [inhibitor, partial curve, poor fit]",
CCc1ccc(CNC(=O)c2nn(-c3ccc(C)c(C)c3)nc2CO)cc1,inactive,
S=c1[nH]nc(-c2cccnc2)n1Cc1ccccc1,"inconclusive: 35.5 µM [inhibitor, partial curve, poor fit]",
Cc1ccc(NC(=O)N2CCc3c(c4ccccc4n3CC3CC3)C2)cc1,inactive,
S=c1[nH]nc(-c2ccco2)n1/N=C/c1ccc(Cl)cc1,"inconclusive: 44.7 µM [inhibitor, partial curve, poor fit]",
O=C(CSC1=Nc2ccccc2C2=NC(c3ccccc3)C(=O)N12)Nc1cc(F)ccc1F (stereo not given),"inconclusive: 5.62 µM [inhibitor, full curve, poor fit]",
COc1cc(OC)c(NC2=CC(=O)C(=O)c3ccccc32)cc1Cl,"inconclusive: 39.8 µM [inhibitor, single point]",
COC(=O)C(/C(C)=N/C(NC(C)=O)(C(F)(F)F)C(F)(F)F)C(NC(C)=O)(C(F)(F)F)C(F)(F)F (stereo not given),inactive,
O=C1CSc2ccc(C(=O)OCC(=O)c3c[nH]c4ccccc34)cc2N1,"inconclusive: 100 µM [inhibitor, single point]",
